Values joined by “and” are separate entries in the source; they are usually repeats but may differ in a detail not shown here. Equal values may be shown once. Where a name gives a salt, the structure may show the parent alone. This is one part of the list. This data set is noisy: repeats of one test often differ as much as different tests do.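 Human kidney-derived cells stably carry a construct in which eight TEAD-binding elements drive luciferase, measured by luminescence in a drug-repurposing library screen. A hit is any compound whose signal exceeds the plate mean by more than five robust Z scores.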
Tested on: HEK293A TEAD-LUC reporter
Experiment: TEAD-luciferase reporter activity (YAP activation), robust Z score vs plate; higher = stronger YAP/TEAD activation
Settings: 24 h

Row | Compound | TEAD-luciferase reporter activity (compound concentration: 200 nM) | TEAD-luciferase reporter activity (compound concentration: 2 uM) | TEAD-luciferase reporter activity (compound concentration: 10 uM)
1 | Oc1ccc2ccccc2c1Cc1c(O)ccc2ccccc12 | inactive: -0.0857 | inactive: -0.238 | inactive: 2.47
2 | CC(C)(N)C(=O)N[C@H](CCCc1ccccc1)C(=O)N1CCC(c2ccccc2CCc2nnn[nH]2)CC1 | inactive: -1.51 | inactive: 0.387 | inactive: -0.175
3 | O=C(O)CCCC(=O)N1Cc2ccccc2CC2(CCCCN2CC2CCCC2)C1 (centres undefined) | inactive: 0.336 |  | inactive: -0.165
4 | COc1cc(CC2c3cc(OC)c(OC)cc3CCN2C)c(Oc2cc3c(cc2OC)-c2c(O)c(OC)cc4c2C(C3)N(C)CC4)cc1OC (centres undefined) | inactive: -2.54 | inactive: -0.93 | inactive: 0.647
5 | N=C(N)NCCCC(N)C(=O)NCCCN1CCN(CCCNC(=O)C(N)CCCNC(=N)N)CC1 (centres undefined) [Ciraparantag] | inactive: 0.0529 | inactive: 0.515 | inactive: -0.22
6 | CN1CCOC(COc2cccc3c2N(C)CCC3)C1 (centres undefined) | inactive: -1.74 | inactive: -0.899 | inactive: 0.617
7 | CN(C)C(=N)NCCC[C@H](N)C(=O)O |  | inactive: 0.266 | 
8 | CN(C)C(=N)NCCC[C@H](N)C(=O)O [N^G,N^G-Dimethylarginine hydrochloride] | inactive: -0.726 |  | inactive: -0.191
9 | COc1cccc2c1C(=O)c1c(O)c3c(c(O)c1C2=O)C[C@@](O)(/C(CO)=N/NC(=O)CCCCCN1C(=O)C=CC1=O)C[C@@H]3O[C@H]1C[C@H](N)[C@H](O)[C@H](C)O1 [Aldoxorubicin hydrochloride] |  | inactive: -0.382 | 
10 | COc1cccc2c1C(=O)c1c(O)c3c(c(O)c1C2=O)C[C@@](O)(/C(CO)=N/NC(=O)CCCCCN1C(=O)C=CC1=O)C[C@@H]3O[C@H]1C[C@H](N)[C@H](O)[C@H](C)O1 [Aldoxorubicin] | inactive: -2.83 |  | inactive: -1.15
11 | COc1cccc(-c2ccc([C@@H](Oc3cc(-c4ccc(C[C@H](N)C(=O)O)cc4)nc(N)n3)C(F)(F)F)cc2)c1 | inactive: -0.374 | inactive: -1.14 | inactive: 1.84
12 | CCCNC(=O)c1cn2ncnc(Nc3cc(C(=O)NC4CC4)ccc3C)c2c1C | inactive: 0.0223 | inactive: -0.619 | inactive: 3.23
13 | CC(CN1c2ccccc2Sc2cccnc21)N(C)C (centres undefined) | inactive: 0.989 | inactive: -0.797 | inactive: -0.805
14 | CCOc1cccc(C(CC)n2nc(C(=O)O)c3c2-c2ccc(OCc4cncnc4)cc2CC3)c1 (centres undefined) | inactive: 0.215 | inactive: 2.2 | inactive: 1.15
15 | CC(C)NC(=O)C1CCCN1c1nc2ncccc2o1 (centres undefined) | inactive: -1.63 |  | inactive: 1.9
16 | O=C(Nc1cccc(C(F)(F)F)c1)c1cccc2cc(Oc3cc(CO)ncn3)ccc12 | inactive: -2.34 | inactive: -0.755 | inactive: 0.431
17 | CCN(CC)CC#CCOC(=O)C(O)(c1ccccc1)C1CCCCC1 (centres undefined) | inactive: 3.21 |  | inactive: -0.475
18 | CCN(CC)CC#CCOC(=O)C(O)(c1ccccc1)C1CCCCC1 (centres undefined) [esoxybutynin] |  | inactive: 1.63 | 

Numbers 5 through 11 of the list above:
Row | Compound | TEAD-luciferase reporter activity (compound concentration: 200 nM) | TEAD-luciferase reporter activity (compound concentration: 2 uM) | TEAD-luciferase reporter activity (compound concentration: 10 uM)
5 | N=C(N)NCCCC(N)C(=O)NCCCN1CCN(CCCNC(=O)C(N)CCCNC(=N)N)CC1 (centres undefined) [Ciraparantag] | inactive: 0.0529 | inactive: 0.515 | inactive: -0.22
6 | CN1CCOC(COc2cccc3c2N(C)CCC3)C1 (centres undefined) | inactive: -1.74 | inactive: -0.899 | inactive: 0.617
7 | CN(C)C(=N)NCCC[C@H](N)C(=O)O |  | inactive: 0.266 | 
8 | CN(C)C(=N)NCCC[C@H](N)C(=O)O [N^G,N^G-Dimethylarginine hydrochloride] | inactive: -0.726 |  | inactive: -0.191
9 | COc1cccc2c1C(=O)c1c(O)c3c(c(O)c1C2=O)C[C@@](O)(/C(CO)=N/NC(=O)CCCCCN1C(=O)C=CC1=O)C[C@@H]3O[C@H]1C[C@H](N)[C@H](O)[C@H](C)O1 [Aldoxorubicin hydrochloride] |  | inactive: -0.382 | 
10 | COc1cccc2c1C(=O)c1c(O)c3c(c(O)c1C2=O)C[C@@](O)(/C(CO)=N/NC(=O)CCCCCN1C(=O)C=CC1=O)C[C@@H]3O[C@H]1C[C@H](N)[C@H](O)[C@H](C)O1 [Aldoxorubicin] | inactive: -2.83 |  | inactive: -1.15
11 | COc1cccc(-c2ccc([C@@H](Oc3cc(-c4ccc(C[C@H](N)C(=O)O)cc4)nc(N)n3)C(F)(F)F)cc2)c1 | inactive: -0.374 | inactive: -1.14 | inactive: 1.84

The listing continues:

Row | Compound | TEAD-luciferase reporter activity (compound concentration: 200 nM) | TEAD-luciferase reporter activity (compound concentration: 2 uM) | TEAD-luciferase reporter activity (compound concentration: 10 uM)
19 | COc1c(C(C)n2cnc3ncccc32)ccc2c1C=CC(C)(C)O2 (centres undefined) | inactive: -0.0267 | inactive: 0.763 | inactive: -2.61
20 | O=C(/C=C\n1cnc(-c2cc(C(F)(F)F)cc(C(F)(F)F)c2)n1)NNc1ccccn1 [Verdinexor] | inactive: 3.22 | inactive: -0.89 | inactive: 1.21
21 | CN(C)CCOc1ccccc1Cc1ccccc1 | inactive: -0.808 | inactive: -1.7 | inactive: -2.57
22 | Cn1c(=O)c2c(ncn2CCO)n(C)c1=O [Etofylline] | inactive: -1.53 | inactive: -0.308 | inactive: 0.186
23 | O=C(O)C(=S)Cc1ccc(I)cc1 | inactive: -1.49 | inactive: -0.711 and inactive: -1.06 | inactive: -1.54
24 | CCCCCN1CCCCC12Cc1ccccc1CNC2=O (centres undefined) | active: 7.39 |  | inactive: 0.789
25 | CC1(C)c2nc(-c3ccc(F)cc3)c(Nc3ccc(F)cc3)n2CCN1C(=O)CN | inactive: -0.442 | inactive: -0.621 | inactive: 3.83
26 | Cc1nc(NCCCCCCc2ccccc2)nc(C)c1O | inactive: -1.16 | inactive: -0.57 | inactive: 2.91
27 | C[C@]1(COc2ccc(N3CCC(Oc4ccc(OC(F)(F)F)cc4)CC3)cc2)Cn2cc([N+](=O)[O-])nc2O1 | inactive: 0.215 | inactive: -0.274 | inactive: -0.0262
28 | O=C(OC(CN1CCN(c2ccncc2)CC1)CN1C(=O)[C@@H]2[C@H](C1=O)[C@@H]1C=C[C@H]2C1)C1CCCCC1 (some centres undefined) | inactive: -1.45 | inactive: -0.794 | inactive: -1.71
29 | Cc1cnc(NS(=O)(=O)c2ccc(N)cc2)nc1 | inactive: -1.74 | inactive: 3.52 | inactive: 0.0232
30 | CC(C)(O)C(C)(O)c1ccc(Cl)cc1 (centres undefined) | inactive: -0.559 | inactive: -0.589 | inactive: 0.8
31 | O=c1c(O[C@@H]2O[C@H](CO)[C@H](O)[C@H](O)[C@H]2O)c(-c2ccc(O)c(O)c2)oc2cc(O)cc(O)c12 | inactive: -1.01 |  | inactive: 3.13
32 | O=c1c(O[C@@H]2O[C@H](CO)[C@H](O)[C@H](O)[C@H]2O)c(-c2ccc(O)c(O)c2)oc2cc(O)cc(O)c12 [Hyperoside] |  | inactive: -0.168 | 
33 | C=C(CO[C@@H]1O[C@@H](CO[C@@H]2OC[C@H](O)[C@H](O)[C@H]2O)[C@@H](O)[C@H](O)[C@H]1O)[C@@H]1Cc2c(ccc3c2OC2COc4cc(OC)c(OC)cc4C2C3=O)O1 (some centres undefined) | inactive: -1.13 | inactive: -1.51 | inactive: -1.42
34 | O=C(CC(O)C(CC1CCCCC1)NC(=O)C(Cc1cscn1)NC(=O)C(CC(=O)N1CCOCC1)Cc1cccc2ccccc12)NCCN1CCOCC1 (centres undefined) | inactive: -1.5 | inactive: -0.0364 | inactive: 0.902
35 | CC(=O)NCC(=O)N1Cc2ccccc2CC2(CCCN2Cc2ccccc2)C1 (centres undefined) | inactive: 0.156 |  | inactive: 3.8

— the supplement of paper PMC10735217
